The source of these data is PMC7819943, “Rice protein-binding microarrays: a tool to detect cis-acting elements near promoter regions in rice”.

Some of the results follow.

This test has as its target T1, OsSMF1 (Oryza sativa, UniProt Q6ZLB0 1-436).
T1 sequence: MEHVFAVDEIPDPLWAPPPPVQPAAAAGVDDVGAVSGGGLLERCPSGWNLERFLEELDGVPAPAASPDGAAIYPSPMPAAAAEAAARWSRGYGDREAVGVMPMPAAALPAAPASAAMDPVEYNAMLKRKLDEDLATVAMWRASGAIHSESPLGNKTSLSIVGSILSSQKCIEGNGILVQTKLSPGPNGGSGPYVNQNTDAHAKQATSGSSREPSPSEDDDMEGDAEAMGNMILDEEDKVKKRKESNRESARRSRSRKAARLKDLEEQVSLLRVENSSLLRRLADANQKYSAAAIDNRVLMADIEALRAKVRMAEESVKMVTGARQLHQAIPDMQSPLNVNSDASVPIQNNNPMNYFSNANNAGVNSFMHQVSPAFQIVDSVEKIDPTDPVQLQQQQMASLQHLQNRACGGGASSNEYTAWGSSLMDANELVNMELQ
Kind of test: protein-binding microarray (RPBM); PBS, 2% BSA, 51.3 ng/ul salmon testes DNA, 50 uM zinc acetate, 200 nM TF, 25 C, 1 h; high values mean tight binding. The conditions noted are these: protein: recombinant; tags: N-terminal polyhistidine and DsRed monomer fusion (pET32a); chain copies: 2; label: CyDye5-dUTP incorporated in the synthesized complementary strand; 3' TTTTT single-stranded linker to array surface; dsDNA, one strand shown. Summed up:
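The binding signal is fluorescence intensity per array feature (arbitrary units). Readings came from an Axon 4000B scanner after a washed, 2% BSA-blocked, double-stranded custom Agilent array had been incubated for 1 h at 25 °C with 200 nM protein and 50 µM zinc acetate. The protein was a Ni–NTA-purified transcription factor fused N-terminally to polyhistidine and DsRed, expressed in E. coli BL21-CodonPlus.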
Regarding “CTTAACTTCCTCCCTCTCCCTTTATAAAACCCTAACCGCCCGGAGTCACCTAGTGCAG”, the binding signal was 19500 fluorescence intensity (a.u.).

Regarding “CTTTGATTTGATGCTTGTTTCGTGGCAGCTTACCACTGGACGGAGTCACCTAGTGCAG”, the binding signal is 3420 fluorescence intensity (a.u.). For “ATCGCAAACCTCAAGGATTCTTCTGGACTGAATTCAGAAGCGGAGTCACCTAGTGCAG”, the binding signal is 3560 fluorescence intensity (a.u.). On to “CGACGAGCGGTAGCTCCGGCGTGCAAGCAAGCGGCGCTCACGGAGTCACCTAGTGCAG”, for which the binding signal is 20800 fluorescence intensity (a.u.). As for “TTTCCAAAAGTATTTTAAAATCTGAAACTTTTAGCCACGTCGGAGTCACCTAGTGCAG”, the binding signal was 3890 fluorescence intensity (a.u.). For the sequence “GTGCTGCCAGTTCATGCCACCCGGCCAAGTGCAAGCATCGCGGAGTCACCTAGTGCAG”, the binding signal is 3680 fluorescence intensity (a.u.). On to “TGTTGAGGTCGAGGGCTATGACACGGTCGTCGAGGTCGAGCGGAGTCACCTAGTGCAG”, for which the binding signal was 3740 fluorescence intensity (a.u.). As for “GACACATGAGGGCCCACATGTCATACATTGTGAATGACACCGGAGTCACCTAGTGCAG”, the binding signal is 3900 fluorescence intensity (a.u.). Turning to “TATATATGTGCCATGTGTGCGTCTGCTCGATTCGATTTGGCGGAGTCACCTAGTGCAG”, the binding signal was 4110 fluorescence intensity (a.u.). For “TGCCATGAAATATTAAACGAGGACATGTTCGGCTATGCCCCGGAGTCACCTAGTGCAG”, the binding signal is 16800 fluorescence intensity (a.u.).

As to “CGGTTGTTCCGTTACGTATGGGACACAACGTCAATAAGCTCGGAGTCACCTAGTGCAG”, the binding signal was 3550 fluorescence intensity (a.u.). Take “ACCGACAGCTGACGTGCCAGGGTTCAAGTCTTCGTTTTGACGGAGTCACCTAGTGCAG”: the binding signal is 5360 fluorescence intensity (a.u.). Regarding “AAATAGCCAAGCCATATCATCTCATCCATATCATAATCGGCGGAGTCACCTAGTGCAG”, the binding signal is 3200 fluorescence intensity (a.u.). As for “CGCGCGCGCGTGACACGGCCACGCGCACCCAGCCGTCGCTCGGAGTCACCTAGTGCAG”, the figure is 5680 fluorescence intensity (a.u.); as for “CCTTGGTTTCCGTGTCATGTTTGACCATTCGTCTTATTTGCGGAGTCACCTAGTGCAG”, 4910 fluorescence intensity (a.u.); as for “ATCAAAAGGTAAGATTTTATGTTATAAGATCATGTTTAGTCGGAGTCACCTAGTGCAG”, 12500 fluorescence intensity (a.u.). As for “AAAGTGTAAGTGTGGTAGATCAATGATCAATAATGTGATTCGGAGTCACCTAGTGCAG”, the figure is 35000 fluorescence intensity (a.u.); as for “CAGGTGTGCAGTGCAGCAAATTATTCCGCGTTGGCACGGCCGGAGTCACCTAGTGCAG”, 3720 fluorescence intensity (a.u.); as for “TGGAGTGAAAATAAAAGAAGCCAACTCGATCAATCGGCTACGGAGTCACCTAGTGCAG”, 29500 fluorescence intensity (a.u.).

In the case of “ATCGCGCGCGCGACGCGAGCTCCACGACGATGTCGCCGTACGGAGTCACCTAGTGCAG”, the binding signal was 3770 fluorescence intensity (a.u.).

For “CCGTGGCTGGTGGGGCGGGTGAGTCACGCCCTCGGCGCTGCGGAGTCACCTAGTGCAG”, the binding signal is 13000 fluorescence intensity (a.u.). Take “AAGTCAACAACGCCACGTAGGCGCCACGTGAGCCAAAATCCGGAGTCACCTAGTGCAG”: the binding signal is 22400 fluorescence intensity (a.u.). As for “CTGCTTGTGCGTGTCAATGACTTCCACCAGTGGAATTTCCCGGAGTCACCTAGTGCAG”, the figure is 4390 fluorescence intensity (a.u.); as for “TCTACGTAGCTGGGCCATGATGACGTAAGGCCTTCCTGCCCGGAGTCACCTAGTGCAG”, 13900 fluorescence intensity (a.u.).

Regarding “GGACCCACAATATTATTTTGTATGTGAATGTCAGATGGGTCGGAGTCACCTAGTGCAG”, the binding signal is 3430 fluorescence intensity (a.u.).

“AAATTGTAATCGACTGAGAGATGGTTCGCACGCGTGGAGTCGGAGTCACCTAGTGCAG”: the binding signal was 3400 fluorescence intensity (a.u.). Consider “CTCCGATGGAAGCCACGTCCTGTCCAATTCCCAAACTAACCGGAGTCACCTAGTGCAG”, for which the binding signal is 4220 fluorescence intensity (a.u.). Then “CTAATTCGGCACCGGATGGCACGTCGGCGGTGAGCCAGACCGGAGTCACCTAGTGCAG”, with 5380 fluorescence intensity (a.u.). Then “CTCCTCGCCACCGTTCTCCGTCCATCCACCGAGTCACCGACGGAGTCACCTAGTGCAG”, with 3310 fluorescence intensity (a.u.); and “TGACACGGACGCACGTCACAACGTCGTCACGTCGCCGCGCCGGAGTCACCTAGTGCAG”, with 9270 fluorescence intensity (a.u.); and “CTGCCCTCTCGGCCAAGATGACGTAGCCATAACGCTTGGACGGAGTCACCTAGTGCAG”, with 6080 fluorescence intensity (a.u.).

For “CGTATGCGACGGCATACTGATTCCACTGTGTCATGTGCAACGGAGTCACCTAGTGCAG”, the binding signal was 3320 fluorescence intensity (a.u.). Consider “GACCTGTGCTTACAACATGTAAAGCCGCGGTGGTCTAGGACGGAGTCACCTAGTGCAG”, for which the binding signal was 22500 fluorescence intensity (a.u.).

On to “TAGCATTACTCATATTCATACAAAATGTTATTACTCCTTCCGGAGTCACCTAGTGCAG”, for which the binding signal was 3390 fluorescence intensity (a.u.).

Turning to “CATTTCATTTCCTCCCAAGAGTCAAGCTAGCCCTTCTTGCCGGAGTCACCTAGTGCAG”, the binding signal is 3550 fluorescence intensity (a.u.). Take “GATAGCAGTTCAAGTTTAACTAAAGCTTCCCTAGGATTATCGGAGTCACCTAGTGCAG”: the binding signal was 15300 fluorescence intensity (a.u.). Consider “CATCTTCATCGGGAGAAACGCCACCTAAAATGTTACTCCCCGGAGTCACCTAGTGCAG”, for which the binding signal was 3350 fluorescence intensity (a.u.). With “TTTCAAGTCTCCTGCTGACATGGCACACTAATTAGGGAGACGGAGTCACCTAGTGCAG”, the binding signal was 7970 fluorescence intensity (a.u.). For the sequence “ACCACGTAAAATATCCAAACTGCCGTGTCCATCGTTTTCCCGGAGTCACCTAGTGCAG”, the binding signal is 3160 fluorescence intensity (a.u.).

For “TCTTCGTTGCCCCTTGTTTTCACCATGTCACTGTTGAACACGGAGTCACCTAGTGCAG”, the binding signal is 4060 fluorescence intensity (a.u.). In the case of “TATGGAATCTCCATCAACCACGTGCATCAACTCTAGCCTTCGGAGTCACCTAGTGCAG”, the binding signal is 4110 fluorescence intensity (a.u.). As to “GCGTGAGCTTAGCAAAGAAATATCTCGTGGCACCTGTCACCGGAGTCACCTAGTGCAG”, the binding signal was 3930 fluorescence intensity (a.u.).
